# According to the supplement of paper PMC12067093, “Discovery and optimisation of a covalent ligand for TRIM25 and its application to targeted protein ubiquitination” (Chemical Science, 2025):
# This is one part of the list.
# Compound: CC1Cc2ccccc2N1C(=O)C1CCCN(C1)C(=O)CCl (mixture of isomers) [TRIM25 ligand 11 (diastereomer mixture)]
# Experiment: probe-labelled cysteine peptide fold change vs DMSO (competition) (log2 fold change); higher = less target engagement (more negative = stronger competition)
# Settings: 10 µM; THP-1; incubation time: 4 h
# 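Further: competitive chemoproteomic profiling in live THP-1 cells with an iodoacetamide desthiobiotin (IA-DTB) probe, comparing probe-labelled peptide intensities in compound-treated cells against DMSO-treated controls.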
row,Target,probe-labelled cysteine peptide fold change
1,EIF2D_P41214_271_TLQEQMDELLQQCFLHALK (UniProt P41214),0.014
2,EDC4_Q6P2E9_4_ASCASIDIEDATQHLR (UniProt Q6P2E9),-0.0253
3,EDC3_Q96F86_477_IYLCDIGIPQQVFQEVGINYHSPFGCK (UniProt Q96F86),0.0526
4,EHD4_Q9H223_493+495_LADCDCDGMLDEEEFALAK (UniProt Q9H223),-0.172
5,EIF2S2_P20042_309_CSVASIK (UniProt P20042),0.0397
6,EEF2_P13639_536+557_SDPMVQCIIEESGEHIIAGAGELHLEICLK (UniProt P13639),-0.00604
7,EIF3B_P55884_302_YWLEEAECRDQYSVIFESGDR (UniProt P55884),0.054
8,EIF2S2_P20042_305_LYFLQCETCHSR (UniProt P20042),-0.0423
9,EDC4_Q6P2E9_838_ETCSTLAESPR (UniProt Q6P2E9),-0.0668
10,EFL1_Q7Z2Z2_124_ICDGCIIVVDAVEGVCPQTQAVLR (UniProt Q7Z2Z2),-0.295
11,EEF1A1_P68104_234_DGNASGTTLLEALDCILPPTRPTDKPLRLPLQDVYK (UniProt P68104),-0.378
12,EHHADH_Q08426_623_CLYSLINEAFR (UniProt Q08426),0.303
13,EIF2A_Q9BY44_366_PVASDSTYFAWCPDGEHILTATCAPR (UniProt Q9BY44),0.182
14,EIF2S3_P41091_96+101_LDDPSCPRPECYR (UniProt P41091),0.0209
15,EIF2B5_Q13144_618_YCALLLPLLK (UniProt Q13144),0.115
16,EEF1A1_P68104_234_DGNASGTTLLEALDCILPPTRPTDK (UniProt P68104),0.0408
17,EIF2AK4_Q9P2K8_46_QDHELQALEAIYGADFQDLRPDACGPVK (UniProt Q9P2K8),0.0137
18,EIF2B3_Q9NR50_424_DCLIGSGQR (UniProt Q9NR50),-0.00481
19,ECT2_Q9H8V3_686_VETISLGEHPCDR (UniProt Q9H8V3),0.138

row,Target,probe-labelled cysteine peptide fold change
1,EEF1D_P29692_247_KLQIQCVVEDDKVGTDLLEEEITKFEEHVQSVDIAAFNK (UniProt P29692),-0.126
2,EHMT1_Q9H9B1_842_DAEGSTCLHLAAK (UniProt Q9H9B1),0.0107
3,ECPAS_Q5VYK3_1638_IVAISCAADILK (UniProt Q5VYK3),0.0975
4,EFTUD2_Q15029_144_TCFVDCLIEQTHPEIR (UniProt Q15029),-0.151
5,EEF2_P13639_557_SDPMVQCIIEESGEHIIAGAGELHLEICLK (UniProt P13639),-0.0687
6,EIF3A_Q14152_478_HCDLQVR (UniProt Q14152),0.0221
7,EIF2B4_Q9UI10_69_GAEPETGSAVSAAQCQVGPTR (UniProt Q9UI10),-0.000696
8,EFTUD2_Q15029_144_TCFVDCLIEQTHPEIRK (UniProt Q15029),-0.25
9,EED_O75530_330_SCENAIVCWKPGK (UniProt O75530),-0.0568
10,EEF1D_P29692_217_SSILLDVKPWDDETDMAQLEACVR (UniProt P29692),-0.0881
11,ECM1_Q16610_450_CCDLPFPEQACCAEEEK (UniProt Q16610),-0.183
12,EHMT2_Q96KQ7_497_HHCCPGCGYFCTAGTFLECHPDFR (UniProt Q96KQ7),-0.0136
13,EHMT1_Q9H9B1_978_EGETPLQCASLNSQVWSALQMSK (UniProt Q9H9B1),-0.0447
14,EIF2S2_P20042_226_TSFVNFTDICK (UniProt P20042),-0.0942
15,EEF2_P13639_136_VTDGALVVVDCVSGVCVQTETVLR (UniProt P13639),-0.229
16,ECH1_Q13011_92_EMVECFNK (UniProt Q13011),-0.0437
17,ECI1_P42126_173_YCIGLNETQLGIIAPFWLK (UniProt P42126),0.00559
18,EGLN1_Q9GZT9_42_SSFYCCK (UniProt Q9GZT9),-0.111
